Results reported in US20250206843A1 (NATIONAL INSTITUTE FOR BIOTECHNOLOGY IN THE NEGEV, published 2025).
Results are given in words; binding and its absence hold for the method and conditions named. Some results given as binding are weak or reduced against the parent protein; the word gives no strength.

Protein sequences, listed by entry. Tags and fused reporters are not part of them. Lines headed by an entry give the natural chain unless they say otherwise; changes in a name come on top.
UniProt P21860: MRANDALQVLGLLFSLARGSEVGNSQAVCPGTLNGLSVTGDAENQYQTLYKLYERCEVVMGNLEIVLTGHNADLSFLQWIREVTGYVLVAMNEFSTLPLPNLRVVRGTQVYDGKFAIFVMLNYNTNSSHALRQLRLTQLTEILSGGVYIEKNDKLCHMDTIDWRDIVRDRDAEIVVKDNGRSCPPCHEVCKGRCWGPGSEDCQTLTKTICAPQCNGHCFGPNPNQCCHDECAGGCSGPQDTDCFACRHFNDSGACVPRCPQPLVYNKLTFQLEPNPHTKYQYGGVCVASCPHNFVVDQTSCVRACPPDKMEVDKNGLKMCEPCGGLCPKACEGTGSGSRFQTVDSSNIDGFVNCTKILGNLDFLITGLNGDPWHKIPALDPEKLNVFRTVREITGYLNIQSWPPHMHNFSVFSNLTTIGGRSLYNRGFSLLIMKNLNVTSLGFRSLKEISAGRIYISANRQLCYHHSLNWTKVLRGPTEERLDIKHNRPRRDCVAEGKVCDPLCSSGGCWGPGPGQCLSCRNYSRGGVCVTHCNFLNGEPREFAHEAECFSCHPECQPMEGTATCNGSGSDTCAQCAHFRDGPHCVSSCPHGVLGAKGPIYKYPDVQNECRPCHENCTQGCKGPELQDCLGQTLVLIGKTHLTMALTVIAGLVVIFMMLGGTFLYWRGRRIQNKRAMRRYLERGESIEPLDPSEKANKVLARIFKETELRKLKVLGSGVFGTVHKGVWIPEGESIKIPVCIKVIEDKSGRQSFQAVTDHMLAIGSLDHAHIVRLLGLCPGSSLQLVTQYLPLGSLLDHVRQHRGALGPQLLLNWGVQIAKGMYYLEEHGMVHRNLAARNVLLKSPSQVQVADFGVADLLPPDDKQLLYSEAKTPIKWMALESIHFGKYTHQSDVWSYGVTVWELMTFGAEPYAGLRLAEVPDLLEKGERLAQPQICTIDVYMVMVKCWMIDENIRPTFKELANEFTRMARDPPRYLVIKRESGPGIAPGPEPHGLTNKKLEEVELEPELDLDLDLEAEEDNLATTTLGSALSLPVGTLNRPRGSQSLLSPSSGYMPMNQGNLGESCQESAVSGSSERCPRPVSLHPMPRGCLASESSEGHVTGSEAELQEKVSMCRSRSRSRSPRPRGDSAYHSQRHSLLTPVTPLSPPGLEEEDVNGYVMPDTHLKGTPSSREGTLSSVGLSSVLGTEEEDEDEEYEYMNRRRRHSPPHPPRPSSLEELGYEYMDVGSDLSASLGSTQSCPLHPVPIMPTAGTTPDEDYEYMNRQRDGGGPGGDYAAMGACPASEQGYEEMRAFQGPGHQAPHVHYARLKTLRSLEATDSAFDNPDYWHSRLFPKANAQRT

Assays:
[1] = biological target: T1, HER2 and HER3 co-expressed on cells (HER2/3) (human) (UniProt P04626+P21860); test: flow cytometry on HEK 293 cells expressing HER2 and HER3, anti-VHH-488 detection, n=3
[2] = biological target: T1, HER2 and HER3 co-expressed on cells (HER2/3) (human); test: flow cytometry on HEK 293 cells expressing HER2 and HER3, anti-VHH-488 detection
[3] = biological target: T1, HER2 and HER3 co-expressed on cells (HER2/3) (human); test: flow cytometry on HEK 293 cells expressing HER2 and HER3, anti-VHH-488 detection, signal normalised to the highest signal, n=3

Measured: binding

B1: Nb46 (VHH)
VHH: QVQLQESGGGSVQAGGSLRLSCVVSGYFYYDHYYVAWFRQAPGKEREGVALINGRDSDTYYADSVKGRFTISQDSAKNTVYLQMNSLKPEDTAIYYCAANPGEAFTVLPPRVFRNWGQGTQVTVSS
notes: also called N46
binds: all assays above
